PubChem BioAssay AID2551 (National Center for Advancing Translational Sciences (NCATS), 2010)
Screen size: about 310,000 compounds; about 17,000 (5.5%) were called active. This list was built around the results that the source calls inconclusive (neither active nor inactive); the mix of calls is not that of the screen. The call rests on the fitted dose curve; in most records, active means well fitted inhibition curve with a large enough effect; inconclusive means small, poorly fitted or top-dose-only effect, or effect the other way; inactive means no such curve, though single readings can be large or run the other way. Where the call is inconclusive, the potency comes from a doubtful curve fit.

Chains of the proteins cited; added tags and fusions are not shown. Lines headed by an entry give the natural chain unless they say otherwise; changes in a name come on top.
UniProt P51450: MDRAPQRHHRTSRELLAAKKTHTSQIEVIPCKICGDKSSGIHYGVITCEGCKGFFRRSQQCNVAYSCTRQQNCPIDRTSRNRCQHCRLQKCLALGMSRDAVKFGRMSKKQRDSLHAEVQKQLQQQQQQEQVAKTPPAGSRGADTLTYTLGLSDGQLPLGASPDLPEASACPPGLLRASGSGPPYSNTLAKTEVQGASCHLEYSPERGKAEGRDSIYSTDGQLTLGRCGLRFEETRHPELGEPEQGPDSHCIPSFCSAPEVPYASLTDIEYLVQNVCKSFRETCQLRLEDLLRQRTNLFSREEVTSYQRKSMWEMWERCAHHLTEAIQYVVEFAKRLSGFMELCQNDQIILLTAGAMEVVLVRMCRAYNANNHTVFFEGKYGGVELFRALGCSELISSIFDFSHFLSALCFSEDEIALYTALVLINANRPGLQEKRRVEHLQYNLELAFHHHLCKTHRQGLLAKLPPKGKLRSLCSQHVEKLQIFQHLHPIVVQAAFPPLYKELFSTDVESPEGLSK

target: Nuclear receptor ROR-gamma (Mus musculus) (UniProt P51450); test: qHTS for inhibitors of ROR gamma transcriptional activity; settings: Drosophila S2 Gal4-RORgamma UAS-luciferase reporter, 20 h; activity change, negative = inhibition: at 53.6 µM (top of the series); further: nearly all actives have a fitted effect of over 60% in size
Procedure, shortened: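 Stable Schneider cell line, Gal4 DNA-binding domain fused to ROR gamma, UAS-luciferase. Cmpd 1 hr RT → CuSO4 700 uM final → 20 hr RT → luciferase reagent 10 min → luminescence.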
On the % scale 0 is the no-effect control and ±100 the full control effect; potency means the concentration at half of the fitted maximal effect.

Row | SMILES | Potency | activity change, negative = inhibition
1 | Cc1ccc(NC(=O)CSc2nc(N)cc(N)n2)cc1S(=O)(=O)N1CCOCC1 | inconclusive: 17.8 µM [activator, single point] | 
2 | O=C(N/N=C/c1ccc(Br)s1)c1c[nH]c2ccccc12 | inconclusive: 22.4 µM [inhibitor, single point] | 
3 | CCOc1ccccc1NC(=S)NCc1ccccc1 | active: 7.08 µM | 
4 | COCCn1c(C)cc(/C=C2\NC(=S)N(C)C2=O)c1C | inconclusive: 35.5 µM [inhibitor, single point] | 
5 | COc1ccc(N=C2SC(CC(=O)Nc3ccccc3)C(=O)N2CCc2ccccn2)cc1 (centres undefined) | inconclusive: 11.2 µM [activator, single point] | 
6 | Cc1cc2nc(-c3ccc(NC(=O)c4cccnc4)cc3)oc2cc1C | inconclusive: 0.891 µM [activator, full curve, poor fit] | 
7 | C(=N/N1CCN(c2ccccc2)CC1)/c1cccs1 | inconclusive: 3.55 µM [activator, full curve, poor fit] | 
8 | Brc1ccc2c(c1)C(c1ccc(N3CCOCC3)cc1)=NNC(c1cccs1)=N2 | inconclusive: 0.794 µM [activator, full curve, poor fit] | 
9 | CCOC(=O)N1CCC(NC(=O)CCS(=O)(=O)c2ccc3c(c2)CCN3C(=O)CC)CC1 | inconclusive: 10 µM [inhibitor, single point] | 
10 | O=C(Nc1ccc(C(=O)N2CCCCC2)cc1)c1cccc([N+](=O)[O-])c1 | inconclusive: 1.78 µM [activator, single point] | 
11 | CCn1c(-c2cccnc2)n[nH]c1=S | inconclusive: 15.8 µM [inhibitor, partial curve] | 
12 | CN1C(=O)c2ccc(C(=O)Nc3ccc(Br)cn3)cc2C1=O |  | inactive: 10.1%
13 | Cc1c(C(C)(C)O)[nH]c2ccc(C(F)(F)F)cc12 | inconclusive: 35.5 µM [activator, single point] | 
14 | COc1cccc(-c2cc(C(F)(F)F)n3ncc(C(=O)N4CCc5ccccc5C4)c3n2)c1 |  | inactive: 20.3%
15 | COc1cccc(-c2csc(N3CCN(C(=S)Nc4ccccc4)CC3)n2)c1 | active: 6.31 µM | 
16 | COC(=O)Cn1cccc1C(=O)c1ccccc1 | inconclusive: 11.2 µM [inhibitor, single point] | 
17 | CC1CCCCC1NC(=O)NC(=O)CCl (centres undefined) | active: 5.01 µM | 
18 | O=C(CSc1ccc(-c2ccccc2)nn1)N1CCN(c2ccccc2)CC1 | inconclusive: 35.5 µM [inhibitor, single point] | 
19 | CC1(C)CCCC(C)(C)N1CC(O)COCCOc1ccc(Br)cc1 (centres undefined) | inconclusive: 35.5 µM [inhibitor, partial curve, poor fit] | 
20 | CC(C)(C)c1ccc(C(=O)NNc2ncccc2-n2cccc2)cc1 | inconclusive: 15.8 µM [inhibitor, single point] | 
21 | O=C(COc1ccc2ccc(=O)oc2c1)Nc1c(Cl)cccc1C(F)(F)F | inconclusive: 10 µM [inhibitor, single point] | 
22 | CN(c1cccc(NC(=O)Nc2cccc(Cl)c2)c1)S(C)(=O)=O | inconclusive: 11.2 µM [activator, partial curve] | 

Part of the list above in order of number of heavy atoms, largest number first.
Row | SMILES | Potency | activity change, negative = inhibition
18 | O=C(CSc1ccc(-c2ccccc2)nn1)N1CCN(c2ccccc2)CC1 | inconclusive: 35.5 µM [inhibitor, single point] | 
21 | O=C(COc1ccc2ccc(=O)oc2c1)Nc1c(Cl)cccc1C(F)(F)F | inconclusive: 10 µM [inhibitor, single point] | 
4 | COCCn1c(C)cc(/C=C2\NC(=S)N(C)C2=O)c1C | inconclusive: 35.5 µM [inhibitor, single point] | 

Continued:

Row | SMILES | Potency | activity change, negative = inhibition
23 | CCN1CCN(c2oc(COc3ccc(-c4ccccc4)cc3)nc2C#N)CC1 | inconclusive: 11.2 µM [activator, partial curve, poor fit] | 
24 | Cn1c(=O)c2c(nc(NCCc3ccccc3)n2Cc2ccc(F)cc2)n(C)c1=O | inconclusive: 22.4 µM [inhibitor, single point] | 
25 | Cc1cc(O)c(C(C)C)cc1NC(=O)Nc1cccc2ccccc12 |  | inactive: 24.5%
26 | O=C(COC(=O)Cn1cnc2ccccc21)Nc1cc2c(cc1Cl)C(=O)c1ccccc1C2=O | active: 2.82 µM | 
27 | CN1C(=O)NC(c2ccc(O)cc2)C2=C1CN(c1ccc(O)cc1)C2=O (centres undefined) |  | inactive: -1.51%
28 | COc1ccc(OC)c(C2C(C(=O)c3sc(C)nc3C)=C(O)C(=O)N2CCN2CCOCC2)c1 (centres undefined) | inconclusive: 3.98 µM [inhibitor, single point] | 
29 | Cc1ccc(C(=O)Nc2cccc3[nH]c(C(F)(F)F)nc23)cc1 | inconclusive: 35.5 µM [activator, single point] | 
30 | O=C(C1CCCN(c2nnc(-n3cccc3)s2)C1)N1CCN(c2ccccc2)CC1 (centres undefined) |  | inactive: 3.96%
31 | COc1ccc(Cl)cc1N(C)C(=O)CCc1nc(-c2ccc(C)cc2)no1 | inconclusive: 35.5 µM [activator, single point] | 
32 | CC1CCC/C(=N/Nc2nc3ccccc3s2)C1 (centres undefined) | active: 6.31 µM | 
33 | O=C(/C=C/c1cccs1)NC(=S)NNC(=O)c1ccccc1O | inconclusive: 15.8 µM [inhibitor, single point] | 
34 | CCc1ccc(NC(=O)C2C3CCC(O3)C2C(=O)O)cc1 (centres undefined) |  | inactive: -2.63%
35 | Oc1cc2c(cc1O)C1c3ccc(O)c(O)c3OCC1(O)C2 (centres undefined) | inconclusive: 15.8 µM [inhibitor, single point] | 
36 | CCOC(=O)Cn1cc(/C=C/[N+](=O)[O-])c2ccccc21 | inconclusive: 17.8 µM [inhibitor, single point] | 
37 | CCOC(=O)c1cnc(SC)nc1Nc1cccc2ccccc12 | inconclusive: 6.31 µM [activator, partial curve] | 
38 | CCc1ccc(NC(=O)Cc2ccc(OC)cc2)cc1 | inconclusive: 14.1 µM [activator, single point] | 
39 | O=C1CCN(CCc2ccccc2)CCN1[C@H](COc1ccccc1)Cc1ccccc1 |  | inactive: 42.2%
40 | COc1cccc(C2c3[nH]c4ccccc4c3CCN2Cc2cccn2-c2ncccn2)c1 (centres undefined) | inconclusive: 35.5 µM [activator, single point] | 
41 | Cc1cc(C)c(C)c(S(=O)(=O)NCC(=O)NCC2CCCCC2)c1C | inconclusive: 2.82 µM [inhibitor, single point] | 
42 | O=C(/C=C/c1ccc(S(=O)(=O)N2CCOCC2)cc1)NCc1ccccc1 | inconclusive: 15.8 µM [activator, single point] | 
43 | CCCCn1c(SC(C)C(N)=O)nc2cc(C(=O)OC)ccc2c1=O (centres undefined) | active: 14.1 µM | 
44 | COc1ccc(C2CC(=O)C3=C(C2)Nc2ncnn2C3c2ccccc2C)c(OC)c1 (centres undefined) | inconclusive: 14.1 µM [activator, single point] | 
